The exact form of at least one protein or probe is not confirmed. At least one verdict rests on a figure or table, not on a statement of the authors.
Columns and labels:
DMC1 + MCPH1 (tag-free) = experiment: Benzonase protection; details: MCPH1 stabilizes DMC1-ssDNA filament (less than RAD51); TPM: 100 mM KCl (150 mM high salt); recombinant protein; label: 5'-32P; single-stranded DNA
RAD51 + MCPH1 (tag-free) = experiment: Benzonase protection; details: MCPH1 stabilizes RAD51-ssDNA filament; TPM: 100 mM KCl (150 mM high salt); recombinant protein; label: 5'-32P; single-stranded DNA

## TTATGTTCATTTTTTATATCCTTTACTTTATTTTCTCTGTTTATTCATTTACTTATTTTGTATTATCCTTATCTTATTTA [Oligo 1 80-mer ssDNA]
DMC1 + MCPH1 (tag-free)
  binding result: binds
RAD51 + MCPH1 (tag-free)
  binding result: binds

— article PMC7498314
